Experimental data reported in patent US6355785B1, “Guanosine-rich oligonucleotide integrase inhibitors” (Aronex Pharmaceuticals, Inc., priority 1993, dated 2002).
Some of these results come from one statement about several compounds together. Some ranges recur; such a range may be that of the whole group of compounds.

System: HIV-1 strain LAV
Assay: HIV-1 cytopathic effect assay in MT-2 cells
Format: cell-based
Conditions: MT-2, m.o.i. 0.01, 7 days; read-out: IC50 viral-induced cytopathic effects

3′-[…]-5′ [A100-50]
IC50: 500 to 1000 nM
